The subject of the experiment is Salmonella Typhi PhoP-promoter GFP reporter, fluorescence, 4 h. Kind of experiment: Inhibition of PhoP regulon, Salmonella typhi GFP reporter cells, confirmation, 4 h (AID 1850).

pIC50: −log10 of the molar value.

The term pIC50 denotes the negative decadic logarithm of the IC50, by convention in mol/L. Regarding `CNCCCC12CCC(c3ccccc31)c1ccccc12`, the pIC50 was 3.93.

The values are drawn from PubChem BioAssay AID1850 (Southern Research Specialized Biocontainment Screening …, 2009).
